From US20040014649A1 (RIGEL PHARMACEUTICALS, published 2004)
No constants are given. Whether binding was seen depends on the method and setting. Some binding calls cover weakened binding; strength is not graded here.

Tests used:
[1] = target: human B-cell associated protein-37 (human BAP-37) (human); assay: yeast two-hybrid
[2] = target: human B-cell associated protein-37 (human BAP-37) (human); assay: yeast two-hybrid interaction profile compared with the functional profile
[3] = target: human B-cell associated protein-37 (human BAP-37) (human); assay: beta-galactosidase yeast two-hybrid interaction profile against clone 3.2CL8 Y_AS_U 0001

Binder | binding [1] | binding [2] | binding [3]
TGVHVELQINRSIMHYISSP [peptide CL08wt] | binds | binds | 
TGVHVELQIAASIMHYISSP [peptide CL08NR] | binds |  | binds
TGAAVELQINRSIMHYISSP [peptide CL08VH] | binds |  | binds
